Consider ten substances from article doi:10.1101/2021.01.27.428018.

Sequences of proteins named here, by UniProt entry; tags and fusion partners are left off.
UniProt Q8WXI9: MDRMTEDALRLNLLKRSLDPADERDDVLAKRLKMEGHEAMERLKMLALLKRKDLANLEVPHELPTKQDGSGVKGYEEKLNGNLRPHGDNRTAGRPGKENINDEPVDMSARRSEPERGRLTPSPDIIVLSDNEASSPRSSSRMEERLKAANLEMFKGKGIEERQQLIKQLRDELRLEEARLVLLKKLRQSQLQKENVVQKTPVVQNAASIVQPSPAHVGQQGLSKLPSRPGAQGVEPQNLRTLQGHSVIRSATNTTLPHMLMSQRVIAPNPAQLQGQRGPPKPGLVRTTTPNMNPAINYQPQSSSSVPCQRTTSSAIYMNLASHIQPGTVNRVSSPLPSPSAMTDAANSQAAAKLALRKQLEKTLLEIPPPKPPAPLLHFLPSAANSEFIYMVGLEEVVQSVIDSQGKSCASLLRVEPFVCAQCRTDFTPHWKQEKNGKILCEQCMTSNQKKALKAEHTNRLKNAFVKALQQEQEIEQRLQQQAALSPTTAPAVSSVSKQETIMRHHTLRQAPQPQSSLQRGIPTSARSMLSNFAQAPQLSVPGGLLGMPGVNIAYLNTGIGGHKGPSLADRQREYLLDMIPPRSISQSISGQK
UniProt Q9UBB5: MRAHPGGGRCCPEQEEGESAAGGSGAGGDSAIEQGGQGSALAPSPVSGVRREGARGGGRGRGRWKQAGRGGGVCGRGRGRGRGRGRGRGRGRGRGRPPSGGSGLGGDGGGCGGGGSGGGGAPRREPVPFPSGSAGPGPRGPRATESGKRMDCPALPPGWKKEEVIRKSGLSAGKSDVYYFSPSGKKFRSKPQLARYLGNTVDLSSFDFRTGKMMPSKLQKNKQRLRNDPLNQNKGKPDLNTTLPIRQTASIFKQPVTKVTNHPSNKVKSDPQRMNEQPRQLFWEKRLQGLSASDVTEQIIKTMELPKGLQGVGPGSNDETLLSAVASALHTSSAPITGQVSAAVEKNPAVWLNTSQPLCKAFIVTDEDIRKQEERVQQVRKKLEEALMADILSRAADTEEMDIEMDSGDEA
UniProt Q13185: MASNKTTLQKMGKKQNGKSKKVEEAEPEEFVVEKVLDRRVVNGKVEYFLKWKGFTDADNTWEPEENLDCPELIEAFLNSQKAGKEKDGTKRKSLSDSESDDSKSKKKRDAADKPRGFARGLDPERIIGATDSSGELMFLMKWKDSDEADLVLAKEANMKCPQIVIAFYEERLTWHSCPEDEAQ
UniProt O15379: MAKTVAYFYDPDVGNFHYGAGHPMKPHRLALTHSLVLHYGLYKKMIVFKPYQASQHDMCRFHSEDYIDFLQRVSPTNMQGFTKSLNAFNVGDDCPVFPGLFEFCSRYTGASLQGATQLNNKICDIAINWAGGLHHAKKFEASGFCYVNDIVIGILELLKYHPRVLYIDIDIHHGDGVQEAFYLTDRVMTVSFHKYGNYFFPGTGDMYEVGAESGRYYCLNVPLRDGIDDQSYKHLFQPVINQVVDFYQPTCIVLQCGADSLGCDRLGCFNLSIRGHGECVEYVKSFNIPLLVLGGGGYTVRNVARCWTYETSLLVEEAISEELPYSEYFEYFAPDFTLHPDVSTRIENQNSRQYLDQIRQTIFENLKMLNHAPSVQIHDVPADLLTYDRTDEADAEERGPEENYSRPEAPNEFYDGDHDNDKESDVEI
UniProt P06732: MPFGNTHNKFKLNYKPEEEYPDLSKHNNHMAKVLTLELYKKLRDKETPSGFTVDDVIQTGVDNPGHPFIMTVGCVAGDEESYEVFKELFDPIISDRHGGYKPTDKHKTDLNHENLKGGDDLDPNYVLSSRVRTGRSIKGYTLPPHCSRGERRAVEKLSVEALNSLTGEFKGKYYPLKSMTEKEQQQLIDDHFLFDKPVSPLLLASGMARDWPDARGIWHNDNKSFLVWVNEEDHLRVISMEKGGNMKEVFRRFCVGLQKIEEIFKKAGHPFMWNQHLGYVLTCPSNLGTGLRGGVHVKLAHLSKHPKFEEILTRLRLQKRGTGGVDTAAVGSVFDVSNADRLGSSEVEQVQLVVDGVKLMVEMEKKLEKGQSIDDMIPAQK
UniProt O75376: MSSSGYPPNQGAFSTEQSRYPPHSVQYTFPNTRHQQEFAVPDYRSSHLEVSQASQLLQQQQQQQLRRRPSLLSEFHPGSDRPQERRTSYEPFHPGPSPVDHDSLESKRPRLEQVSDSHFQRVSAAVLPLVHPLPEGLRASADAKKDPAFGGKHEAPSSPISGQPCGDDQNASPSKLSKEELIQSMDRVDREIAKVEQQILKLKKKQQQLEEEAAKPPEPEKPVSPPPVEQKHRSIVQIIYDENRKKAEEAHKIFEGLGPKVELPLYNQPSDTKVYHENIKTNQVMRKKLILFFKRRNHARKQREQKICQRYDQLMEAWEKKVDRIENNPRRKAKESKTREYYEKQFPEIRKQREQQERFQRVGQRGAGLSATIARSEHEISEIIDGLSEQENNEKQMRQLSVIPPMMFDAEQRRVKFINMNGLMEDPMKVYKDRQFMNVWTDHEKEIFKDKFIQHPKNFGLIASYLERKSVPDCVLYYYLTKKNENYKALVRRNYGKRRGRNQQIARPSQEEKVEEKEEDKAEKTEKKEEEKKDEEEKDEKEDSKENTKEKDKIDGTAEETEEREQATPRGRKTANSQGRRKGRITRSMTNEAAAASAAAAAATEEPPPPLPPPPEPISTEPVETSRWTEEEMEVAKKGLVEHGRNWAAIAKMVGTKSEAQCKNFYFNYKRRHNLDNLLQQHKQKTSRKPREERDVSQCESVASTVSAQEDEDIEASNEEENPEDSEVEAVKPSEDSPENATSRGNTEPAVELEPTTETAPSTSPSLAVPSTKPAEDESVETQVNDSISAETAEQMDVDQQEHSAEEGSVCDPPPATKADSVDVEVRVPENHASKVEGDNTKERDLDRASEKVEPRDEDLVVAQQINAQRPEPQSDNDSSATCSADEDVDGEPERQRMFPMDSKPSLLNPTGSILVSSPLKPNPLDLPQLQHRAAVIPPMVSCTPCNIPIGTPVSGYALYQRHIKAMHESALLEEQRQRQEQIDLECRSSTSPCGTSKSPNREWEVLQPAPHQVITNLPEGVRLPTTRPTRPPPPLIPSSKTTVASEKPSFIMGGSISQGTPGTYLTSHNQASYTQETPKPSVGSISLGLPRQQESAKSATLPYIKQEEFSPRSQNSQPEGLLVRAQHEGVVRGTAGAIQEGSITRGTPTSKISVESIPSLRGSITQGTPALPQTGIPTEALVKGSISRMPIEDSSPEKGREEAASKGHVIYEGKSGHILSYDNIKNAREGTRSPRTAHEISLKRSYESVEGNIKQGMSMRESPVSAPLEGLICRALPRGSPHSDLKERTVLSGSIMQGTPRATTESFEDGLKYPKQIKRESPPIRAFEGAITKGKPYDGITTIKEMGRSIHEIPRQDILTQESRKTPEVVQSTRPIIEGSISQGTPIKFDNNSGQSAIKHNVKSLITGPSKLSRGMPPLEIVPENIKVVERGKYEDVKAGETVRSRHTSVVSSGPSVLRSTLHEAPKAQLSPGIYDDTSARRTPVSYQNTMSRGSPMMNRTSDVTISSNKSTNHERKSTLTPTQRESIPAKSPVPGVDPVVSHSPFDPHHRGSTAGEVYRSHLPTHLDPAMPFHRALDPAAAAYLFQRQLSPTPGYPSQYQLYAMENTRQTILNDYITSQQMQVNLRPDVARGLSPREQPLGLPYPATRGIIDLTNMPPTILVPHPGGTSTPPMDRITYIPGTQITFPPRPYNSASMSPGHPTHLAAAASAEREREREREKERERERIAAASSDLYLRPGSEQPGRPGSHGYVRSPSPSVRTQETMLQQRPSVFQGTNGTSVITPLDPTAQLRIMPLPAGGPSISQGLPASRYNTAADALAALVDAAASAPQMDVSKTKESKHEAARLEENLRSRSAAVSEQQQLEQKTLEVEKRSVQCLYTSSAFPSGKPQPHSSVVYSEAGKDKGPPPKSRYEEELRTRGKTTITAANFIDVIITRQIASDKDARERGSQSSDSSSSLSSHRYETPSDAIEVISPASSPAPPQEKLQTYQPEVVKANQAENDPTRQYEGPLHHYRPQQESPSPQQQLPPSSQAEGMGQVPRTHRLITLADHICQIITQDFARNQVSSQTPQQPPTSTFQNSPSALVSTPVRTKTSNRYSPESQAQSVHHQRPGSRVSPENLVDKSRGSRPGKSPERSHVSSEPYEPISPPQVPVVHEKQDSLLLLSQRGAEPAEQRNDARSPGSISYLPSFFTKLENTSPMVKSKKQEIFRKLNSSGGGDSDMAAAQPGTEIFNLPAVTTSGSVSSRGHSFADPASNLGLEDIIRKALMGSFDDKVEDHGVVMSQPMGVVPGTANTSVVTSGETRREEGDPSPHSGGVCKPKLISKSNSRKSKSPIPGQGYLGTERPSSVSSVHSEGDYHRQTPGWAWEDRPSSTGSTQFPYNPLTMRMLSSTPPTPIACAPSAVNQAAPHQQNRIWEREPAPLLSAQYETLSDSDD
UniProt Q99873: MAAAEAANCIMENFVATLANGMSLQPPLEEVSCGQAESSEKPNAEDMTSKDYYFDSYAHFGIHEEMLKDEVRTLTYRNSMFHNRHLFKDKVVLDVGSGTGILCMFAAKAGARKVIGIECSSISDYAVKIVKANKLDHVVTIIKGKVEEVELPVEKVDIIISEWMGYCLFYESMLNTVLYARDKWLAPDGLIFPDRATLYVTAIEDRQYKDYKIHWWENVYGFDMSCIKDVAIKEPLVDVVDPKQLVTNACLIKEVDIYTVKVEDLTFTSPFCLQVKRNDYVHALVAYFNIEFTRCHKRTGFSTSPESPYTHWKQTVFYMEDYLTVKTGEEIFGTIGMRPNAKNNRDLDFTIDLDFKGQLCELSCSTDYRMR
UniProt Q5VZL5: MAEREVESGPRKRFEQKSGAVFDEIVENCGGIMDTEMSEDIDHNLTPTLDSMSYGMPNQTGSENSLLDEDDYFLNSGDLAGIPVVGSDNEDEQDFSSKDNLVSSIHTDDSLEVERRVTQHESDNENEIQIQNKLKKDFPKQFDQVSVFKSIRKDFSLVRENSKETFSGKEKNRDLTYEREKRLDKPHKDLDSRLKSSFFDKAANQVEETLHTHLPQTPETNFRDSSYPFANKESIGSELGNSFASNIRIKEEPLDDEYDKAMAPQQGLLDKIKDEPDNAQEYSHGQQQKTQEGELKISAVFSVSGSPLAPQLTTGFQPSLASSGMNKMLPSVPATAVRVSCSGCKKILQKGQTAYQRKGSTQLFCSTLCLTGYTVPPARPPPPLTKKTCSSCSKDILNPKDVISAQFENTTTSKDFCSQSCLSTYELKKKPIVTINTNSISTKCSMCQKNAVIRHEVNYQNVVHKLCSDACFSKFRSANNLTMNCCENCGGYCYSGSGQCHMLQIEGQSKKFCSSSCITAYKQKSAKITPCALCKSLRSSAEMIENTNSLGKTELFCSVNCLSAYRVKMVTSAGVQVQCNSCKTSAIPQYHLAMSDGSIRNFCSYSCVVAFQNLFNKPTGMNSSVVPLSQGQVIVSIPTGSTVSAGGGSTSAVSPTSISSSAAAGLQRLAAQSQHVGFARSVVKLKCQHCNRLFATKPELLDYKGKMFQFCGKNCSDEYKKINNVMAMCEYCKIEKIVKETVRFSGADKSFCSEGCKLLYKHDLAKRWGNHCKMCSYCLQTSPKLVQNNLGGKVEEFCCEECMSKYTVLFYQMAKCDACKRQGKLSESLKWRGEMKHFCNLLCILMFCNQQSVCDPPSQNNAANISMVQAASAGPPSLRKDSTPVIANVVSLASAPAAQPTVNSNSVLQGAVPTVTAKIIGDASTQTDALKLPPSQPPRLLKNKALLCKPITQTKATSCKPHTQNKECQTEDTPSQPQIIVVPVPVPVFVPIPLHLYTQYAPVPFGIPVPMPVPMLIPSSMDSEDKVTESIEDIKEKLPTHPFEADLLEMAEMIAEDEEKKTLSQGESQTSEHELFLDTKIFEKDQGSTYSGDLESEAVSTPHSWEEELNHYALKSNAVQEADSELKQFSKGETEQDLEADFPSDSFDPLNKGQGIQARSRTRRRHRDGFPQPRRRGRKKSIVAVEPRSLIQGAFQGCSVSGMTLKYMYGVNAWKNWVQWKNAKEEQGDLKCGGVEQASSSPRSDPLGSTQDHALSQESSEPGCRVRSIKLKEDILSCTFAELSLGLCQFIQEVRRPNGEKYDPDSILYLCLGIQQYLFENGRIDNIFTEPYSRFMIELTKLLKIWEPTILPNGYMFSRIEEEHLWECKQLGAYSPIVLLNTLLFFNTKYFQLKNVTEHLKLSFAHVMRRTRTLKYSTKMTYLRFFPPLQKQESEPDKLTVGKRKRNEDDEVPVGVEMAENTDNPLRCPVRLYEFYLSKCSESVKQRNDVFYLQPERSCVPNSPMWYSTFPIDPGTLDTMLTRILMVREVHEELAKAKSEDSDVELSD

These are yes or no findings as the source states them, for the method shown. In cells and extracts the contact can be indirect. Here binding means that the protein was enriched with, or labelled near, the bait; the list need not be complete. For some of these results: Tags and fused reporters may be left off the sequences shown.

Experiment in all cases: affinity purification with mass spectrometry
Assay [1] has as its target T1, FLAG-ADNP (bait of the PD-MS) (UniProt Q9H2P0).
T1 sequence: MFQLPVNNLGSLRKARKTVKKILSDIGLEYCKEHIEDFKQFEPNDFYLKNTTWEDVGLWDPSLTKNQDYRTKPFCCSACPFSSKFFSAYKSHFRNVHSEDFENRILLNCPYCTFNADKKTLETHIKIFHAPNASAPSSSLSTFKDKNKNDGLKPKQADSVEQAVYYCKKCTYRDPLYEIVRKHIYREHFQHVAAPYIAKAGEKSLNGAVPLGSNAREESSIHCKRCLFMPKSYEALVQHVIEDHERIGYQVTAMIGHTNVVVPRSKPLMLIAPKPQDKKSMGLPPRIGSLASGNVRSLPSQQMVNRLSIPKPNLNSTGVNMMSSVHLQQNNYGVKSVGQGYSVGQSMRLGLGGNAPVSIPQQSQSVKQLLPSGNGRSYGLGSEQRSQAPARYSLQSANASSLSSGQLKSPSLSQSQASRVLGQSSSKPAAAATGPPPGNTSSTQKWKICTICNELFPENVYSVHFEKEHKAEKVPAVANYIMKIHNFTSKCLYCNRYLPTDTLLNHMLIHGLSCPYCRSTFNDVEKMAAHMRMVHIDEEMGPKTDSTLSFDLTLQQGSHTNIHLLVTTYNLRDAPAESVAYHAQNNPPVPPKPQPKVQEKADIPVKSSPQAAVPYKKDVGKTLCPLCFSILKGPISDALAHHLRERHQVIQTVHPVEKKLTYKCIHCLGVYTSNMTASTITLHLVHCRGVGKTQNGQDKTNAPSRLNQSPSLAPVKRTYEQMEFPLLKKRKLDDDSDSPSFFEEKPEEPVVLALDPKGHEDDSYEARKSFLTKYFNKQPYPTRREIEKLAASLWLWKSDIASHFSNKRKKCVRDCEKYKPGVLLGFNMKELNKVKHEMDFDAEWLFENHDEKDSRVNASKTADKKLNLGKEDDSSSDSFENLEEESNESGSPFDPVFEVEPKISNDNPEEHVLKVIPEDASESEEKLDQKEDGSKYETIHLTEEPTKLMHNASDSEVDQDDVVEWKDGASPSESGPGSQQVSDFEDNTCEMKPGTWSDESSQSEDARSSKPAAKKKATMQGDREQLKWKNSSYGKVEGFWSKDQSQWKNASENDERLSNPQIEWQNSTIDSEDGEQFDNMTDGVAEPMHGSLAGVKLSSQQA

The target of another assay is T2, FLAG-CDK2AP1 (UniProt O14519).
T2 sequence: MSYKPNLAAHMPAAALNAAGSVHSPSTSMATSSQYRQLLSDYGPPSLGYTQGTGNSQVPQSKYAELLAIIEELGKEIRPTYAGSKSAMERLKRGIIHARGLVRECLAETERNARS

The target of assay [2] is FLAG-GATAD2B (full-length) (UniProt Q8WXI9).
Another assay deals with FLAG-MBD2a (UniProt Q9UBB5).

In the case of CBX3/HP1γ (from UniProt Q13185 1-183), the binding result in assay [1] is listed as “binds”.
Consider GSP2 (from UniProt Q13227 1-327), for which, in the assay with FLAG-CDK2AP1, the binding result is listed as “binds”.
As to “HDAC2 (from UniProt Q92769 1-488) (enzyme)”, the binding entry in the assay with FLAG-CDK2AP1 was “binds”.
The same measure, in the same setting: next, “HDAC3 (from UniProt O15379 1-428) (enzyme)”: “binds”.
Take KCRM (from UniProt P06732 1-381): the binding result in assay [2] is “binds”.
As for NCOR1 (from UniProt O75376 1-2440), the binding result in the assay with FLAG-CDK2AP1 was “binds”.
For the substance “PRMT1 (from UniProt Q99873 1-371) (enzyme)”, the binding result with FLAG-MBD2a was “binds”.
The same measure, in the same setting: next, SMARCA4 (from UniProt P51532 1-1647): “binds”.
In the case of SMARCA5 (from UniProt O60264 1-1052), in the assay with FLAG-MBD2a, the binding result was “binds”.
As to ZMYM4 (from UniProt Q5VZL5 1-1548), the binding result in assay [1] is reported as “binds”.
